Where a name gives a salt, the structure may show the parent alone. This is one part of the list. Most values lie at the level of the controls, where differences are scatter. Where a SMILES comes first, the peptide text is derived from it. Bridges are numbered along the chain shown (N, C = ends). [ ]: non-standard residue; d: D form. Orn = NCCC[C@H](N)C(=O)O; Mpa = O=C(O)CCS
Assays:
Settings in all cases: 5 µM; treatment: days 7-14 after plating, readout day 21
[1] = test system: hPSC-derived cortical neurons (WA09); assay: nucleus area z-score vs screen plate; higher = larger nuclei (more mature)
[2] = test system: hPSC-derived cortical neurons (WA09); assay: total neurite length per nucleus (MAP2) z-score; higher = more neurite growth
[3] = test system: hPSC-derived cortical neurons (WA09); assay: nucleus roundness z-score vs screen plate; higher = rounder nuclei (more mature)
[4] = test system: hPSC-derived cortical neurons (WA09); assay: KCl-induced FOS+/EGR-1+ double-positive nuclei fraction z-score (KCl minus unstimulated); higher = stronger activity-induced IEG response

Compound: N=C(N)NC(=N)N1CCOCC1 [Moroxydine HCl]
- nucleus area z-score [1]: 1.53
- total neurite length per nucleus (z-score) [2]: 1.84
- nucleus roundness z-score [3]: 1.23
- KCl-induced FOS+/EGR-1+ double-positive nuclei fraction z-score [4]: 2.65

Compound: Cc1ncc(CO)c(CO)c1O [Pyridoxine HCl]
- nucleus area z-score [1]: -0.0311
- total neurite length per nucleus (z-score) [2]: 0.253
- nucleus roundness z-score [3]: 1.48
- KCl-induced FOS+/EGR-1+ double-positive nuclei fraction z-score [4]: 1.11

Compound: CNc1cccc(CCOc2ccc3c(c2)CN(CC(F)(F)F)C(=O)[C@H](CC(=O)O)C3)n1
- nucleus area z-score [1]: 2.77
- total neurite length per nucleus (z-score) [2]: -0.296
- nucleus roundness z-score [3]: -0.568
- KCl-induced FOS+/EGR-1+ double-positive nuclei fraction z-score [4]: -0.0294

Compound: Fc1ccc(CNc2ncnc3ccc(F)cc23)cc1 [Spautin-1]
- nucleus area z-score [1]: 0.314
- total neurite length per nucleus (z-score) [2]: 0.0789
- nucleus roundness z-score [3]: -0.0482
- KCl-induced FOS+/EGR-1+ double-positive nuclei fraction z-score [4]: -1.36

Compound: COc1cc2c(cc1OC)CN(CCc1ccc(NC(=O)c3cc(OC)c(OC)cc3NC(=O)c3cnc4ccccc4c3)cc1)CC2 [Tariquidar]
- nucleus area z-score [1]: -1.76
- total neurite length per nucleus (z-score) [2]: -0.94
- nucleus roundness z-score [3]: -0.482
- KCl-induced FOS+/EGR-1+ double-positive nuclei fraction z-score [4]: 0.347

Compound: CCOC(=O)c1ccc(NC(=O)O[C@H]2[C@H](OC(=O)Nc3ccc4c(c3)OCO4)[C@@H](OC(=O)Nc3ccc4c(c3)OCO4)[C@@H](OC)O[C@@H]2CO)cc1
- nucleus area z-score [1]: 0.676
- total neurite length per nucleus (z-score) [2]: 0.559
- nucleus roundness z-score [3]: 0.299
- KCl-induced FOS+/EGR-1+ double-positive nuclei fraction z-score [4]: 1.04

Compound: Cc1nc(C)c(Cl)c(O)c1Cl [Clopidol]
- nucleus area z-score [1]: 0.476
- total neurite length per nucleus (z-score) [2]: 0.897
- nucleus roundness z-score [3]: 0.8
- KCl-induced FOS+/EGR-1+ double-positive nuclei fraction z-score [4]: 2.67

Compound: COc1ccc([C@]2(C#N)CC[C@@H](C(=O)O)CC2)cc1OC1CCCC1 [Cilomilast]
- nucleus area z-score [1]: -0.832
- total neurite length per nucleus (z-score) [2]: 0.705
- nucleus roundness z-score [3]: -0.904
- KCl-induced FOS+/EGR-1+ double-positive nuclei fraction z-score [4]: -0.866

Compound: CCOc1ccc(C[C@H]2NC(=O)CCSSC[C@@H](C(=O)N3CCC[C@H]3C(=O)N[C@@H](CCCN)C(=O)NCC(N)=O)NC(=O)[C@H](CC(N)=O)NC(=O)[C@H]([C@@H](C)O)NC(=O)[C@H]([C@@H](C)CC)NC2=O)cc1 [Atosiban Acetate] ([Mpa][dY](Et)ITNCP[Orn]G-NH2; disulfide 1-6)
- nucleus area z-score [1]: -0.262
- total neurite length per nucleus (z-score) [2]: 0.595
- nucleus roundness z-score [3]: 0.885
- KCl-induced FOS+/EGR-1+ double-positive nuclei fraction z-score [4]: 2.01

Compound: N=C(N)NC(=O)Cc1c(Cl)cccc1Cl [Guanfacine Hydrochloride]
- nucleus area z-score [1]: -0.0353
- total neurite length per nucleus (z-score) [2]: -0.251
- nucleus roundness z-score [3]: 0.282
- KCl-induced FOS+/EGR-1+ double-positive nuclei fraction z-score [4]: -0.206

Compound: OC[C@@H](O)[C@@H](O)[C@H](O)[C@H](O)CO [D-Mannitol]
- nucleus area z-score [1]: 0.288
- total neurite length per nucleus (z-score) [2]: 0.0518
- nucleus roundness z-score [3]: -0.188
- KCl-induced FOS+/EGR-1+ double-positive nuclei fraction z-score [4]: 0.532

Compound: Cc1c(NC(=O)c2cccnc2)c(=O)n(-c2ccccc2)n1C [Nifenazone]
- nucleus area z-score [1]: -0.293
- total neurite length per nucleus (z-score) [2]: 0.484
- nucleus roundness z-score [3]: 1.48
- KCl-induced FOS+/EGR-1+ double-positive nuclei fraction z-score [4]: 1.78

Compound: OC(CN1CCN(c2cccc(Cl)c2)CC1)C(c1ccccc1)c1ccccc1 (stereo not given)
- nucleus area z-score [1]: -0.496
- total neurite length per nucleus (z-score) [2]: 0.389
- nucleus roundness z-score [3]: 1.25
- KCl-induced FOS+/EGR-1+ double-positive nuclei fraction z-score [4]: 0.606

Compound: CC(C)NCC(O)COc1cccc2ccccc12 (stereo not given) [Propranolol HCl]
- nucleus area z-score [1]: 0.123
- total neurite length per nucleus (z-score) [2]: -0.608
- nucleus roundness z-score [3]: -0.556
- KCl-induced FOS+/EGR-1+ double-positive nuclei fraction z-score [4]: -0.0118

Compound: CCC1=C(C)CN(C(=O)NCCc2ccc(S(=O)(=O)NC(=O)N[C@H]3CC[C@H](C)CC3)cc2)C1=O [Glimepiride]
- nucleus area z-score [1]: 0.347
- total neurite length per nucleus (z-score) [2]: 0.598
- nucleus roundness z-score [3]: 0.538
- KCl-induced FOS+/EGR-1+ double-positive nuclei fraction z-score [4]: -0.0534
